# Data source: PubChem BioAssay AID743454 (Peter MacCallum Cancer Centre, 2014)
# Screen: 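Knock-downs lowering viability or raising caspase 3/7 activity in vorinostat-treated resistant cells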 (primary screen)
# System: human HCT116-VR colon cancer cells, selected for vorinostat resistance
# Reagent: siRNA pool against human genes, 40 nM siRNA pool
# Duration: vorinostat for 24 h, read-out about 72 h after transfection
# Treatment: vorinostat at 2.5 µM final
# Measurement: 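Two measures, CellTiter-Fluor viability and luminescent caspase 3/7 activity, each as fold change against same-plate mock wells, mean of duplicates, then screen-wide robust z-score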
# Direction: viability robust z-score: higher = more viable cells than screen typical; caspase robust z-score: higher = more caspase 3/7 activity than screen typical
# Rule for the call: 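Hits are knock-downs in viability class RV1/RV2 or caspase class CA1/CA2, excluding ones that killed cells in the no-drug cell-count arm; hits then retested with single siRNAs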
# In all, the deposit lists about 18,000 reagents; below is a random part of them. 450 of them (2.5%) were called active. 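Single biological run; no consistent viability z cut-off exists, so the class columns, not z-scores, define the calls.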
target,viability hit class,caspase hit class,viability robust z-score,caspase robust z-score,activity call
ZNF777,no change,no change,-0.56,-0.16,inactive
ZKSCAN3,no change,no change,-1.06,-1.13,inactive
SLC10A6,no change,no change,0.78,-0.53,inactive
AFF3,no change,no change,0.96,-0.4,inactive
SIRT5,no change,no change,0.27,1.46,inactive
ERICH3,no change,no change,-0.86,2.67,inactive
IQGAP3,no change,no change,-0.74,-0.3,inactive
JUP,no change,no change,0.81,1.32,inactive
MAVS,no change,no change,1.23,-0.49,inactive
RCAN2,no change,no change,-0.01,1.66,inactive
CES5A,no change,no change,-0.74,2.84,inactive
ZNF428,no change,no change,-1.19,0.86,inactive
DMRT2,no change,no change,0.55,-0.98,inactive
USP37,no change,no change,-0.55,0.64,inactive
PDXDC1,no change,no change,-0.77,-0.41,inactive
FBXL9P,no change,no change,0.33,-0.48,inactive
RAB1B,no change,no change,0.94,-0.13,inactive
PER1,no change,no change,0.98,-0.17,inactive
PYROXD2,no change,no change,0.77,-0.11,inactive
IQSEC1,RV2 (reduced viability),no change,-3.28,2,active
PEF1,no change,no change,0.38,1.75,inactive
SHOC2,no change,no change,0.4,1.21,inactive
ARHGEF10L,no change,no change,-0.34,-0.8,inactive
MAK16,RV2 (reduced viability),no change,-2.96,1.31,active
ZNRF3,no change,no change,-0.62,2.14,inactive
TIMD4,no change,no change,0.55,-0.9,inactive
GTPBP2,no change,no change,0.96,0.78,inactive
ACTA2,no change,no change,0.3,1.7,inactive
DNM1L,no change,no change,-0.16,-0.18,inactive
SLC26A2,no change,no change,0.84,-0.7,inactive
ZNF718,no change,no change,1.36,0.42,inactive
NOP10,no change,no change,0.56,0.12,inactive
PRX,no change,no change,-0.65,1.02,inactive
CDKN2B,no change,no change,0.56,0.19,inactive
RFC5,no change,no change,0.28,0.06,inactive
SLC50A1,no change,no change,1.42,-0.16,inactive

Part of the list above, set out differently:
ZNRF3 | viability hit class = no change; caspase hit class = no change; viability robust z-score = -0.62; caspase robust z-score = 2.14; activity call = inactive
TIMD4 | viability hit class = no change; caspase hit class = no change; viability robust z-score = 0.55; caspase robust z-score = -0.9; activity call = inactive
GTPBP2 | viability hit class = no change; caspase hit class = no change; viability robust z-score = 0.96; caspase robust z-score = 0.78; activity call = inactive

Additional reagents follow:
target,viability hit class,caspase hit class,viability robust z-score,caspase robust z-score,activity call
B3GLCT,no change,no change,-0.83,-0.49,inactive
TSPAN3,no change,no change,0.82,0.78,inactive
CDC25A,no change,no change,-0.08,-0.42,inactive
IFT54,no change,no change,-0.54,0.93,inactive
MYOM3,no change,no change,0.89,0.62,inactive
EIF3K,no change,no change,-0.37,-0.46,inactive
PLXNA4,no change,no change,1.4,-0.94,inactive
AFDN-DT,no change,no change,0.52,-0.59,inactive
SLC9A8,no change,no change,0.6,1.55,inactive
IQCB1,no change,no change,-2.24,3.24,inactive
FAM218A,no change,no change,-0.27,0.71,inactive
SLC75A1,no change,no change,-1.13,0.38,inactive
MAP2K2,no change,no change,-0.18,-0.98,inactive
ANKMY1,no change,no change,1.83,0.3,inactive
ALKBH2,no change,no change,-0.83,-0.4,inactive
BRD10,no change,no change,-0.4,-0.86,inactive
ZIC4,no change,no change,0.2,-0.48,inactive
HAMP,no change,no change,1.53,-0.14,inactive
MEA1,no change,no change,-0.26,0.08,inactive
ZNF568,no change,no change,1.21,-0.27,inactive
TAAR5,no change,no change,-0.55,-0.42,inactive
